The nature of this assay: IkB Signaling. As to conditions: ABC-DLBCL IkBa-CBG/CBR dual luciferase ratio (green luciferase fused to IkBa over red control in OCI-Ly3 lymphoma cells), 4 h. In a few lines: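 In this assay, an IκBα–CBG68 fusion accumulates when IKK-driven degradation is blocked; native CBR normalizes for cell number. OCI-Ly3 cells were treated 4 h with compound and doxycycline, then green and red light read after Chroma-Glo addition.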
[1] abbreviates: measured here: control luc red channel unless noted.

Each structure is given as a SMILES string. The list shows a part of the results. The main result of the screen is listed elsewhere. These columns were measured beside it and carry no call. Most of these compounds were active or inconclusive in the main read-out, so they are no random draw. Potencies come from curve fits of mixed quality, noted in brackets.

By AC50 is commonly meant the concentration giving half of the maximal activity seen. For the compound `COc1ccc(Cn2c(CO)cnc2SCc2ccc(F)cc2)cc1`, the AC50 under setting [1] was 3.16 µM [falling, partial curve]. The same measure, in the same setting: the value for `Cc1cccc(-c2noc(CN(C(=O)CCc3ccccc3)C(C)C)n2)c1` was 15.8 µM [falling, partial curve]. Same read-out and setting: in the case of `Cc1ccc(Cl)cc1N1CCN(Cc2nnnn2C2CCCCC2)CC1` it was 25.1 µM [falling, partial curve]; in that of `Cc1ccc(Cc2nc3ccccc3nc2SCC(=O)N2CCN(c3ccccc3)CC2)cc1`, 7.94 µM [falling, partial curve]. In the case of `CCOc1ccccc1NC(=O)C1=C(C)Nc2ncnn2C1c1ccc(NC(C)=O)cc1` (configuration not stated), the AC50 under setting [1] was 10 µM [falling, partial curve]. Still for that read-out and setting: the value for `CC1(C)CC(=O)C(C=Nc2ccc3[nH]ncc3c2)=C(O)C1` was 2.51 µM [falling, full curve, poor fit]; that for `COc1ccc(-c2onc(C)c2C)cc1S(=O)(=O)NCc1ccc(C)o1` was 0.316 µM [rising, full curve, poor fit]; that for `COc1ccc(CCCc2nnc(SCC(=O)Nc3cccc(C)c3)o2)cc1` was 25.1 µM [falling, partial curve]. On the same count and under the same terms, in the case of `Cc1ccc2[nH]cc(C(c3ccccc3)c3ccc(C)s3)c2c1` (configuration not stated) it was 39.8 µM [falling, single point]; in that of `CCOC(=O)c1ccc(-c2ccc(/C=C(\C#N)c3nc4ccc(C)cc4[nH]3)o2)cc1`, 7.94 µM [falling, full curve].

For the compound `COCC(C)NC(=O)c1cc2c(=O)n3cccc(C)c3nc2s1` (configuration not stated), the AC50 under setting [1] is 3.98 µM [rising, partial curve]. In the case of `CCN(c1ccc(Cl)cc1)S(=O)(=O)c1nnc(NC(=O)c2ccccc2C)s1`, the AC50 under setting [1] was 20 µM [falling, partial curve].

Turning to `CC(CNC(=O)C1CCN(C(=O)N2CCOc3ccc(Cl)cc32)CC1)c1ccccc1` (configuration not stated), under setting [1], the AC50 is 12.6 µM [falling, partial curve]. Still for that read-out and setting: in the case of `CC1Cn2c(C(=O)NCc3cccc(Br)c3)cc3cccc(c32)S1` (configuration not stated) it was 31.6 µM [falling, single point]; in that of `CC(C)(C)C1CCc2nc(NC(=O)c3ccc([N+](=O)[O-])cc3)sc2C1` (configuration not stated), 7.94 µM [falling, partial curve]. Turning to `Cc1ccc(C(=O)O)cc1NC1(c2ccccc2)C(=O)c2ccccc2C1=O`, under setting [1], the AC50 was 1.58 µM [rising, partial curve].

As to `Cc1cccc(-c2nc3c(cnn3-c3ccccc3)c(=O)n2-c2ccc(Br)cc2)c1`, the AC50 under setting [1] was 0.501 µM [rising, full curve]. As to `COc1ccc2oc(-c3ccc(C)c(NC(=O)c4ccc(-c5ccccc5[N+](=O)[O-])o4)c3)nc2c1`, the AC50 under setting [1] was 10 µM [falling, partial curve]. Regarding `CCCCCCCCCCCCCCCCCC(=O)NC[C@@H](COP(=O)([O-])OCC[N+](C)(C)C)OCC`, the AC50 under setting [1] is 25.1 µM [falling, partial curve, poor fit] [measured here: IkB-luc green channel].

On to `COc1ccccc1CNC(=O)C1CCCN(c2nnc(C)c3c(C)n(-c4ccccc4)nc23)C1` (configuration not stated), for which, under setting [1], the AC50 is 2.51 µM [falling, partial curve]. The same measure, in the same setting: the value for `COc1ccc(-c2nnc(SCC(=O)OC3CCCCC3)o2)cc1OC` was 31.6 µM [falling, single point]; that for `O=C(CCSCc1cccc(Cl)c1)NCc1ccc(F)cc1Cl` was 31.6 µM [falling, single point]; that for `COc1cccc(N(C(=O)c2ccco2)C(C(=O)NC2CCCC2)c2ccc(N(C)C)cc2)c1` (configuration not stated) was 25.1 µM [falling, partial curve]. In the case of `Cc1[nH]c2ccccc2c(=O)c1CN(C)Cc1ccccc1`, the concentration at half-maximal activity (AC50) under setting [1] was 3.98 µM [falling, partial curve]. Regarding `Cc1ccc2[nH]c(CSc3nnc(NC(=O)c4ccccc4F)s3)cc(=O)c2c1`, under setting [1], the AC50 is 0.126 µM [rising, full curve, poor fit]. Still for that read-out and setting: the value for `CCc1ccccc1NC(=O)c1sc2nc(C)cc(COC)c2c1N` was 0.794 µM [rising, partial curve]; that for `Cc1cccc(N(Cc2cc3ccccc3[nH]c2=O)C(=O)c2cccc(Cl)c2)c1` was 10 µM [falling, partial curve]; that for `Cc1cccc(CCNC(=O)c2ccc(CSCc3cccc(Cl)c3)o2)c1` was 39.8 µM [falling, single point]. For `O=C(C(Cc1ccccc1)n1cccc1)N1CCc2ccccc21` (configuration not stated), under setting [1], the half-maximal activity concentration (AC50) was 20 µM [falling, partial curve]. Still for that read-out and setting: in the case of `COc1cccc(C(=O)N2CCN(C3CCC(c4ccccc4)CC3)CC2)c1` (configuration not stated) it was 20 µM [falling, single point]; in that of `O=C(CCC1CCCC1)Nc1ccc(Br)cn1`, 0.0794 µM [rising, full curve, poor fit]; in that of `CCOc1ccccc1N1CC(c2nc3ccccc3n2CCOc2ccccc2OC)CC1=O` (configuration not stated), 20 µM [falling, single point]. On to `Cn1nc(-c2ccc(C(=O)Nc3ccc(OC(F)(F)F)cc3)cc2)c2ccccc2c1=O`, for which the AC50 under setting [1] is 0.00631 µM [falling, full curve, poor fit]. `O=c1cc(CN2CCN(C/C=C/c3ccccc3)CC2)c2cc(O)ccc2o1`: under setting [1], the AC50 is 15.8 µM [falling, partial curve]. As for `O=C(NCc1ccccc1Cl)C(=O)NCC(c1cccs1)S(=O)(=O)c1ccccc1` (configuration not stated), the AC50 under setting [1] is 5.01 µM [rising, partial curve].

Regarding `N#C/C(=C\c1ccc(-c2ccc(Cl)c(C(=O)O)c2)o1)c1nc2ccccc2[nH]1`, under setting [1], the AC50 was 25.1 µM [falling, partial curve].

On to `Cc1ccc(-n2c(SCc3ccccc3C)nc3[nH]ncc3c2=O)cc1C`, for which the AC50 under setting [1] is 20 µM [falling, partial curve]. Still for that read-out and setting: the value for `Cc1cccn2c(=O)c3cc(C(=O)NC(C)c4ccccc4)c(=N)n(CCOCCO)c3nc12` (configuration not stated) was 31.6 µM [falling, partial curve]. In the case of `COc1ccc(Cl)cc1NC(=O)c1c(NCc2cccs2)sc2c1CCCC2`, the AC50 under setting [1] is 39.8 µM [falling, single point]. Same read-out and setting: in the case of `Cc1cccc(-n2ncc(C(=O)Nc3ccc4c(c3)OCO4)c2C2CCN(C(=O)OC(C)(C)C)CC2)c1` it was 15.8 µM [falling, partial curve]; in that of `CN(C)c1ccc(NC(=O)CSC2=Nc3ccccc3C3=NC(CC(=O)NCc4ccc5c(c4)OCO5)C(=O)N23)cc1` (configuration not stated), 15.8 µM [falling, single point]; in that of `Oc1ccc(NCc2ccccc2OCc2ccccc2Cl)cc1`, 15.8 µM [falling, partial curve].

For the compound `Cc1ccc(NC(=O)Cn2cnc3c(oc4ccccc43)c2=O)cc1`, the AC50 under setting [1] is 15.8 µM [falling, partial curve]. `Cc1ccc(COc2cccc3cc(-c4noc(-c5ccc(C)cc5)n4)c(=O)oc23)cc1`: the AC50 under setting [1] was 0.794 µM [falling, partial curve]. `CC(C)C(=O)c1cc2c(cc1NC(=O)c1ccccc1F)OCCO2`: the AC50 under setting [1] is 15.8 µM [falling, partial curve].

On to `COc1ccc(C(=O)NCc2nnc(SCC(=O)Nc3ccc(F)cc3)n2-c2ccccc2)cc1`, for which, under setting [1], the AC50 was 25.1 µM [falling, single point]. In the case of `COC(=O)c1ccc(NC(=O)CSc2nc3c(c(=O)n(C)c(=O)n3C)n2Cc2ccccc2)cc1`, the AC50 under setting [1] is 20 µM [falling, single point]. Same read-out and setting: in the case of `COC(=O)c1ccc(OC)c(CSc2nnc(COc3cccc(C)c3)o2)c1` it was 15.8 µM [falling, partial curve].

Regarding `Cc1cc(Nc2ccc(Cl)cc2)n2cnnc2n1`, under setting [1], the AC50 was 39.8 µM [falling, single point]. `CC(C)N1CCC2(CC1)N=C(c1ccc3c(c1)OCO3)CC(c1cc(Cl)ccc1O)N2` (configuration not stated): the AC50 runs as follows: (measured here: IkB-luc green channel) 3.98 µM [rising, partial curve]; (measured here: control luc red channel) 10 µM [falling, partial curve]. In the case of `Cc1ccccc1-c1noc(-c2cc(C(C)C)[nH]n2)n1`, the concentration at half-maximal activity (AC50) under setting [1] is 15.8 µM [falling, partial curve].

Take `Cc1cccc(N2CCN(C(=O)CN3C(=O)COc4ccc(S(=O)(=O)N5CCCC5)cc43)CC2)c1C`: under setting [1], the half-maximal activity concentration (AC50) was 3.16 µM [falling, single point]. On the same count and under the same terms, the value for `CC(NC(=O)c1ccco1)C(c1cccs1)N1CCN(c2ccccc2)CC1` (configuration not stated) was 15.8 µM [falling, partial curve]. Take `N#C/C(=C\c1c(Oc2ccc(F)cc2)nc2ccccn2c1=O)c1nc2ccccc2s1`: the AC50 under setting [1] is 25.1 µM [falling, single point]. The same measure, in the same setting: the value for `COCC(=O)O[C@]1(CCN(C)CCCc2nc3ccccc3[nH]2)CCc2cc(F)ccc2[C@@H]1C(C)C` was 15.8 µM [falling, partial curve] [measured here: IkB-luc green channel]; that for `CCc1ccc(CNC(=O)C2CCN(C(=O)c3ccc(-n4ccc5ccccc54)s3)CC2)cc1` was 10 µM [falling, partial curve]. On the same count and under the same terms, in the case of `Cc1ccccc1CS(=O)(=O)c1ncc(Cl)c(C(=O)Nc2nnc(C(C)C)s2)n1` it was 6.31 µM [falling, full curve]. Consider `Cc1ccccc1-c1noc(-c2ccc(N3CCCC3)c([N+](=O)[O-])c2)n1`, for which the AC50 under setting [1] is 15.8 µM [falling, single point]. As to `CCOc1ccc(N(C(=O)c2ccc(OC)cc2)S(=O)(=O)c2ccc3c(c2)n(C)c(=O)n3C)cc1`, under setting [1], the AC50 is 0.398 µM [rising, partial curve].

Turning to `O=C(c1ccc(S(=O)(=O)N2CCCC2)cc1)N1CCN(Cc2ccc3c(c2)OCO3)CC1`, under setting [1], the AC50 is 7.94 µM [falling, partial curve]. Take `COc1ccc(OC)c(C(=O)C2COC(=O)C2)c1` (configuration not stated): the AC50 under setting [1] was 15.8 µM [falling, partial curve].

(Values after PubChem BioAssay AID445 (National Center for Advancing Translational Sciences (NCATS), 2006).)
